Assay results taken from publication doi:10.1101/2025.02.13.638021.
These are yes or no findings as the source states them, for the method shown. For part of these data: In cells and extracts the contact can be indirect. Some entries that bind do so weakly or less than the wild type.

Chains of the proteins cited; added tags and fusions are not shown. Lines headed by an entry give the natural chain unless they say otherwise; changes in a name come on top.
UniProt P84092: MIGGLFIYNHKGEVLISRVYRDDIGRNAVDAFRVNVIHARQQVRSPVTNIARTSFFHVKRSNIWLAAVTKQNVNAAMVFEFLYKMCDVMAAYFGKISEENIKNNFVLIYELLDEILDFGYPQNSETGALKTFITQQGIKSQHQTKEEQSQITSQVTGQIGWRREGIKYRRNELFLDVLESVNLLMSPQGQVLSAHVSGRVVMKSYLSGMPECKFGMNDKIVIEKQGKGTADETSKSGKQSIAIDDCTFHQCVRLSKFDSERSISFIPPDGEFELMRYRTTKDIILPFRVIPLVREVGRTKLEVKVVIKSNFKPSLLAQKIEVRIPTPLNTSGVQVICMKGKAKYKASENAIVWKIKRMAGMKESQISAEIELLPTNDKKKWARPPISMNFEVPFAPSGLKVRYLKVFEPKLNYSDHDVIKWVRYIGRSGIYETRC
UniProt P63010: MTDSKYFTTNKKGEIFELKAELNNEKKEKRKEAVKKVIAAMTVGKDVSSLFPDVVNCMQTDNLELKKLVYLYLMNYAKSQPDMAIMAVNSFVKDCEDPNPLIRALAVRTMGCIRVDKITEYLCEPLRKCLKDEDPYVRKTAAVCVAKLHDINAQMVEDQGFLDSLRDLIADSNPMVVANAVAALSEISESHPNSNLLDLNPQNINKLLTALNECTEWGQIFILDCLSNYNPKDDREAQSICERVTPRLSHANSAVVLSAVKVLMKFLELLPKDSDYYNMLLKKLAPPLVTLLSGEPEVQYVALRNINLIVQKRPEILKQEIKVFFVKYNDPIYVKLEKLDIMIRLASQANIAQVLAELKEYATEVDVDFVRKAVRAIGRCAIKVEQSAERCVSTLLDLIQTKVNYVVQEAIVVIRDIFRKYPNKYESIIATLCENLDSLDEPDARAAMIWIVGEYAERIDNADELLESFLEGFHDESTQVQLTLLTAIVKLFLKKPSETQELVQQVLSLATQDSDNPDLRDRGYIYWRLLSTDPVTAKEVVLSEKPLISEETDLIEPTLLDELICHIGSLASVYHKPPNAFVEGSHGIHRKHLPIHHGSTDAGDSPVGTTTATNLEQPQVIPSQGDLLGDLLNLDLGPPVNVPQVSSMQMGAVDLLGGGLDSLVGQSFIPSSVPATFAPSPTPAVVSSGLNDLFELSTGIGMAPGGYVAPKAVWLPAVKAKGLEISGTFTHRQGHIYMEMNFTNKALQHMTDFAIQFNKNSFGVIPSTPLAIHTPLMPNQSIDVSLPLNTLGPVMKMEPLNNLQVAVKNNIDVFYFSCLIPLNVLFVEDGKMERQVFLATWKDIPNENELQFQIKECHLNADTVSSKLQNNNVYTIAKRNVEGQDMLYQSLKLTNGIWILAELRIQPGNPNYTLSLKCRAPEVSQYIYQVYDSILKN

Columns and labels:
[1] = target: myc-μ2^S45A (UniProt P84092); test: co-IP
[2] = target: myc-μ2^WT (UniProt P84092); test: co-IP
[3] = target: GFP-Avi-tag-βGal [β-galactosidase: P00722]; test: pull-down

binding [1]	binding [2]	binding [3]	Substance
binds	binds	–	AP2 β2 subunit (β2 adaptin) (from UniProt P63010 1-937)
–	–	no binding (tested: 0.2 mg/ml his-µ2)	recombinant his-tagged μ2 (μ2 subunit of the AP2 adaptor complex) (from UniProt P84092 1-435)
